Data as given in PubChem BioAssay AID1259425 (University of Nebraska Medical Center, 2018).
The whole screen tested about 14,000 reagents; shown is a random part of them. Not all columns of the deposit are shown. Not stated in the record: the time to read-out.

Test: 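Compare each knockdown with KSR1 silencing using changes in marker transcripts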 (primary screen)
Cells: HCT116 human colon cancer cells
Reagents: siRNA pool against human genes, 50 nM siRNA
Measured: 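mRNA of six signature genes measured together by branched-DNA assay after 50 nM siRNA pool, blank removed, divided by geometric mean of two housekeeping genes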
Scale: BNIP3L mRNA: higher = more BNIP3L transcript after knockdown; NDRG1 mRNA: higher = more NDRG1 transcript after knockdown

Which result is listed for DIRAS2 (DIRAS family GTPase 2)?
BNIP3L mRNA, set 1: 0.0727; NDRG1 mRNA, set 1: 0.233

What is on record for CDH4 (cadherin 4)?
BNIP3L mRNA, set 1: 0.218; NDRG1 mRNA, set 1: 0.457

Which result is listed for DLGAP5 (DLG associated protein 5)?
BNIP3L mRNA, set 1: 0.0595; NDRG1 mRNA, set 1: 0.102

For ASB3 (ankyrin repeat and SOCS box containing 3), what was measured?
BNIP3L mRNA, set 1: 0.137; NDRG1 mRNA, set 1: 0.323

With FARP2 (FERM, ARH/RhoGEF and pleckstrin domain protein 2), what does the deposit list?
BNIP3L mRNA, set 1: 0.0824; NDRG1 mRNA, set 1: 0.101

Which result is listed for CDK2AP1 (cyclin dependent kinase 2 associated protein 1)?
BNIP3L mRNA, set 1: 0.0573; NDRG1 mRNA, set 1: 0.431

Which result is listed for LILRB4 (leukocyte immunoglobulin like receptor B4)?
BNIP3L mRNA, set 1: 0.0599; NDRG1 mRNA, set 1: 0.154

Which result is listed for PLAU (plasminogen activator, urokinase)?
BNIP3L mRNA, set 1: 0.0658; NDRG1 mRNA, set 1: 0.171

Which result is listed for CRACD (capping protein inhibiting regulator of actin dynamics)?
BNIP3L mRNA, set 1: 0.15; NDRG1 mRNA, set 1: 0.422

What is on record for MYBPH (myosin binding protein H)?
BNIP3L mRNA, set 1: 0.14; NDRG1 mRNA, set 1: 0.425

With MXD4 (MAX dimerization protein 4), what does the deposit list?
BNIP3L mRNA, set 1: 0.134; NDRG1 mRNA, set 1: 0.16

What is on record for MPHOSPH6 (M-phase phosphoprotein 6)?
BNIP3L mRNA, set 1: 0.286; NDRG1 mRNA, set 1: 0.347

How did the screen score NECTIN1 (nectin cell adhesion molecule 1)?
BNIP3L mRNA, set 1: 0.0516; NDRG1 mRNA, set 1: 0.273

For KDM4A (lysine demethylase 4A), what does the deposit list?
BNIP3L mRNA, set 1: 0.131; NDRG1 mRNA, set 1: 0.58

How did the screen score PSG6 (pregnancy specific beta-1-glycoprotein 6)?
BNIP3L mRNA, set 1: 0.116; NDRG1 mRNA, set 1: 0.214

For DUSP16 (dual specificity phosphatase 16), what does the deposit list?
BNIP3L mRNA, set 1: 0.0569; NDRG1 mRNA, set 1: 0.135

With OXGR1 (oxoglutarate receptor 1), what was measured?
BNIP3L mRNA, set 1: 0.139; NDRG1 mRNA, set 1: 0.244

For ATP6V0B (ATPase H+ transporting V0 subunit b), what was measured?
BNIP3L mRNA, set 1: 0.179; NDRG1 mRNA, set 1: 0.754

With CDH13 (cadherin 13), what was measured?
BNIP3L mRNA, set 1: 0.0889; NDRG1 mRNA, set 1: 0.183

What did the screen give for COXFA4 (cytochrome c oxidase associated subunit FA4)?
BNIP3L mRNA, set 1: 0.127; NDRG1 mRNA, set 1: 1.35

Which result is listed for PTCD1 (pentatricopeptide repeat domain 1)?
BNIP3L mRNA, set 1: 0.114; NDRG1 mRNA, set 1: 0.167

With GAS1 (growth arrest specific 1), what was measured?
BNIP3L mRNA, set 1: 0.179; NDRG1 mRNA, set 1: 0.255

For COPA (coat protein complex I subunit alpha), what does the deposit list?
BNIP3L mRNA, set 1: 0.52; NDRG1 mRNA, set 1: 1.36

With CLNS1A (chloride nucleotide-sensitive channel 1A), how do the results read?
BNIP3L mRNA, set 1: 0.0196; NDRG1 mRNA, set 1: 0.0629

For SNRK (SNF related kinase), what was measured?
BNIP3L mRNA, set 1: 0.169; NDRG1 mRNA, set 1: 0.0521

Which result is listed for MOB1A (MOB kinase activator 1A)?
BNIP3L mRNA, set 1: 0.344; NDRG1 mRNA, set 1: 0.716

With ACOT8 (acyl-CoA thioesterase 8), what does the deposit list?
BNIP3L mRNA, set 1: 0.229; NDRG1 mRNA, set 1: 0.429

For BCL2L12 (BCL2 like 12), how do the results read?
BNIP3L mRNA, set 1: 0.0774; NDRG1 mRNA, set 1: 0.388

A run of entries of the results above, for reference:
ASB3 (ankyrin repeat and SOCS box containing 3) — BNIP3L mRNA, set 1 = 0.137; NDRG1 mRNA, set 1 = 0.323
FARP2 (FERM, ARH/RhoGEF and pleckstrin domain protein 2) — BNIP3L mRNA, set 1 = 0.0824; NDRG1 mRNA, set 1 = 0.101
CDK2AP1 (cyclin dependent kinase 2 associated protein 1) — BNIP3L mRNA, set 1 = 0.0573; NDRG1 mRNA, set 1 = 0.431
